Source: publication PMC9788671
Results are given in words; binding and its absence hold for the method and conditions named. In cells and extracts the contact can be indirect. These calls come from enrichment with a bait or labelling near it, and not all partners need be listed.

Chains of the proteins cited; added tags and fusions are not shown.
UniProt Q9NZV8: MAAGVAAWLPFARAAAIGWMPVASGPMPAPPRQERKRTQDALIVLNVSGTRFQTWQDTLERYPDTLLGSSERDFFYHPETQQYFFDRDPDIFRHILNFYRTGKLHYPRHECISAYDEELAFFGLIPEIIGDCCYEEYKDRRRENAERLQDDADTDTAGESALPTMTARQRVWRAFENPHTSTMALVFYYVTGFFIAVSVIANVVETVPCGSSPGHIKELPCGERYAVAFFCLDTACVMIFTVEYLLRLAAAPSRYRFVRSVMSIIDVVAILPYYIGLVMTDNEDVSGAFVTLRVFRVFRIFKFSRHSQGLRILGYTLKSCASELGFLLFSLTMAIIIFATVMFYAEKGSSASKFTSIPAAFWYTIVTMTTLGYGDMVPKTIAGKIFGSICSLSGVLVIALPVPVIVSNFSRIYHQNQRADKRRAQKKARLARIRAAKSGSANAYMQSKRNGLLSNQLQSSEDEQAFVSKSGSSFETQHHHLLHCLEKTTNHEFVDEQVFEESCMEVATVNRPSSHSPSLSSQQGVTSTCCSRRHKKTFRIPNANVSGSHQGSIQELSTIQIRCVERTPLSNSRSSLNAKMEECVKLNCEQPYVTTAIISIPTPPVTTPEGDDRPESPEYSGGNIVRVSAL

B1: Phb (protein, UniProt P67779 1-272)
chain: MAAKVFESIGKFGLALAVAGGVVNSALYNVDAGHRAVIFDRFRGVQDIVVGEGTHFLIPWVQKPIIFDCRSRPRNVPVITGSKDLQNVNITLRILFRPVASQLPRIYTSIGEDYDERVLPSITTEILKSVVARFDAGELITQRELVSRQVSDDLTERAATFGLILDDVSLTHLTFGKEFTEAVEAKQVAQQEAERARFVVEKAEQQKKAAIISAEGDSKAAELIANSLATAGDGLIELRKLEAAEDIAYQLSRSRNITYLPAGQSVLLQLPQ
B2: Rala (protein, UniProt P63322 1-206)
chain: MAANKPKGQNSLALHKVIMVGSGGVGKSALTLQFMYDEFVEDYEPTKADSYRKKVVLDGEEVQIDILDTAGQEDYAAIRDNYFRSGEGFLCVFSITEMESFAATADFREQILRVKEDENVPFLLVGNKSDLEDKRQVSVEEAKNRADQWNVNYVETSAKTRANVDKVFFDLMREIRARKMEDSKEKNGKKKRKSLAKRIRERCCIL
B3: Atp5c1 (protein, UniProt P35435 1-273)
chain: ATLKDITRRLKSIKNIQKITKSMKMVAAAKYARAERELKPARVYGTGSLALYEKAEIKGPEDKKKHLIIGVSSDRGLCGAIHSSVAKQMKNDMAALTAAGKEVMIVGIGEKIKSILYRTHSDQFLVSFKDVGRKPPTFGDASVIALELLNSGYEFDEGSIIFNQFKSVISYKTEEKPIFSFSTVVAAENMSIYDDIDADVLQNYQEYNLANIIYYSLKESTTSEQSARMTAMDNASKNASDMIDKLTLTFNRTRQAVITKELIEIISGAAALD
B4: Mybbp1a (protein, UniProt O35821 1-1344)
chain: MAEMKSPTKAEPASPAEAPQGDRRSLLEHSREFLDFFWDIAKPDQETRLRATEKLLEYLRTRPSDSEMKYALKRLITGLGVGREAARPCYSLALAQLLQSFEDIQLCDILGQIQEKYNLQAMNKAMMRPTLFANLFGVLALFQSGRLVKDKEALMKCVRLLKILSHHYNHLQGQPVKALVDILSEVPESMFQEILPKVLKGDMKVILSSPKYLELFLLARQRVPAELESLVGSVDLFSEDNIPSLVNILKVAANSVKKEQKLPDVALNLLRLALQENKFERFWKEVLEEGLLKKPSYTSSYMCFRLLGASLPLLSDEQLQLVMRGDLIRHFGEHMVVSKSQNPLRFIPEISAYVGTFLEGCQDDPKRQFTVMVAFTAITNQGLPVMPTFWRVTRFLNTEALQNYVTWLRDMFLQPDLDSLVDFSTANQKRVQVASLNVPERTVFRLRKWIIHRLVSLVDHLHLEKDEAVVEQIARFCLFHAFFKTKKATPQIPETKQHFSFPLEDGNRGVIVSAFFSLLQTLSVKFRQTPDLAENGKPWTYRLVQLADMLLKHNRNVANVTPLTAQQRQAWDQMMSTLKELEAQSSETRAIAFQHLLLLVGLHLFKSPAESCDVLGDIQTCIKKSMEQNLRRSRSRAKASQEPVWVEVMVEILLSLLAQPSNLMRQVVRSVFGHVCSHLTPRGLQLILAVLNPETNEDEEDNVVVTDTDEKQLKHGEDADSDSEDSKNSESDVDSEDGEESEEEDRDKDVDPGFRQQLMEVLQAGNALGGEEEEEEELGDEAMMALDQNLASLFAEQKMRIQARHEEKNKLQKEKQLRRDFQIRALDLIEVLVTKQPEHPLILELLEPLLNIIQRSMRSRGSTKQEQDLLHKTARIFMHHLCRARHYCHEVEPGAEALHAQVERLVQQAGNQADASVALYYFNASLYLLRVLKGNTTKRYQDGQKLEGADIKSEPKDSEVQTTSCLDLDFVTRVYSASLESLLTKRNSPLTIPMFLDLFSRYPVICKNLLPIVVQHVAGSSRPRHQAQACLLLQKALSARELRVCFEDPEWEQLISQVLGKTTQTLQTLGEAQSKGEHQRELSILELLNTVFRIVNHEKLSVDLTAFLGMLQGKQQKLQQNLQQGNHSSGSSRLYDLYWQAMNLLGVQRPKSEKKNVKDIPSDSQSPISTKRKKKGFLPETKKRKKLKSEGTTSEKKAASQQDAVTEGAMPAATGKDQPPSTGKKRRKRVKANTPSQVNGVTVAKSPAPNNPTLSPSTPPAKTPKVQKKKEKLSQVNGSTPVSPVEPESKKHQKALSTKEVKRRSSQSALPKKRARLSLVSRSPSLLQSGIRKRRVARRRVQTP
B5: Slc25a4 (protein, UniProt Q05962 1-298)
chain: MGDQALSFLKDFLAGGIAAAVSKTAVAPIERVKLLLQVQHASKQISAEKQYKGIIDCVVRIPKEQGFLSFWRGNLANVIRYFPTQALNFAFKDKYKQIFLGGVDRHKQFWRYFAGNLASGGAAGATSLCFVYPLDFARTRLAADVGKGSSQREFNGLGDCLTKIFKSDGLKGLYQGFSVSVQGIIIYRAAYFGVYDTAKGMLPDPKNVHIIVSWMIAQSVTAVAGLVSYPFDTVRRRMMMQSGRKGADIMYTGTVDCWRKIAKDEGRKAFFKGAWSNVLRGMGGAFVLVLYDEIKKYV
B6: Atp5o (protein, UniProt Q06647 24-213)
chain: FSKLVRPPVQVYGIEGRYATALYSAASKQKRLDQVEKELLRVGQLLKDPKVSLAVLNPYIKRSIKVKSLKDITTKEKFSPLTANLMNLLAENGRLGNTQGVISAFSTIMSVHRGEVPCTVTTAFPLDEAVLSELKTVLNSFLSKGQILNLEVKTDPSIMGGMIVRIGEKYVDMSAKSKIQKLSKAMRDLL
B7: KChIP4 (protein, UniProt Q99MG9 1-250)
chain: MNVRRVESISAQLEEASSTGGFLYAQNNTKRSIKERLMKLLPCSAAKTSSPAIQNSVEDELEMATVRHRPEALELLEAQSKFTKKELQILYRGFKNECPSGVVNEETFKEIYSQFFPQGDSTTYAHFLFNAFDTDHNGAVSFEDFIKGLSILLRGTVQEKLNWAFNLYDINKDGYITKEEMLDIMKAIYDMMGKCTYPVLKEDAPRQHVETFFQKMDKNKDGVVTIDEFIESCQKDENIMRSMQLFENVI
B8: Sf3b2 (protein, UniProt D3ZMS1 1-878)
chain: MAAEHPEPPKGELQLPPPPPPGHYGAWAAQELQAKLAEIGAPIQGSREELVERLQTYTRQTGIVLNRPVLRGEDGDKAAPPPMSAQLSGIPMPPPPLGLPPLQPPPPPPPPPPGLGLGFPMAHPPNLGPPPPLRVGEPVALSEEERLKLAQQQAALLMQQEERAKQAAVLMEQERQQEIAKMGTAVPRPPQDMGQLGVRTPLGPRVAAPVGPVVPTPTVLPMGAPVPRPRGPPPPPGDENREMDDPSVGPKIPQALEKILQLKESRQEEMNSQQEEEEMETDTRSSLGQSASETEEDTVSTSKKEKNRKRRNRKKKKKPQRVRAASSESSGDREKDSARSRGSDSPAADVEIEYVTEEPEIYEPNFIFFKRIFEAFKLTDDVKKEKEKEPEKLDKMENSAVPKKKGFEEEHKDSDDDSSDDEQEKKPEAPKLSKKKLRRMNRFTVAELKQLVARPDVVEMHDVTAQDPKLLVHLKATRNSVPVPRHWCFKRKYLQGKRGIEKPPFELPDFIKRTGIQEMREALQEKEEQKTMKSKMREKVRPKMGKIDIDYQKLHDAFFKWQTKPKLTIHGDLYYEGKEFETRLKEKKPGDLSDELRISLGMPVGPNAHKVPPPWLIAMQRYGPPPSYPNLKIPGLNSPIPESCSFGYHAGGWGKPPVDETGKPLYGDVFGTNAAEFQTKTEEEEIDRTPWGELEPSDEESSEEEEEEESDEDKPDETGFITPADSGLITPGGFSSVPAGMETPELIELRKKKIEEAMDGSETPQLFTVLPEKRTATVGGAMMGSTHIYDMSTVMSRKGPAPELQGVEVALAPEELELDPMAMTQKYEEHVREQQAQVEKEDFSDMVAEHAAKQKQKKRKAQPQDSRGGSKKYKEFKF
B9: KChIP3 (protein, UniProt Q9JM47 1-256)
chain: MQRTKEAMKASDGSLLGDPGRIPLSKREGIKWQRPRFTRQALMRCCLIKWILSSAAPQGSDSSDSELELSTVRHQPEGLDQLQAQTKFTKKELQSLYRGFKNECPTGLVDEDTFKLIYSQFFPQGDATTYAHFLFNAFDADGNGAIHFEDFVVGLSILLRGTVHEKLKWAFNLYDINKDGYITKEEMLAIMKSIYDMMGRHTYPILREDAPLEHVERFFQKMDRNQDGVVTIDEFLETCQKDENIMSSMQLFENVI

Biological target: TAP-Kv4.2 (human) (UniProt Q9NZV8)
Assay: affinity purification with mass spectrometry; TAP-Kv4.2 expressed by lentivirus in rat hippocampal neurons, harvested at DIV14; weak lysis buffer of the kit (0.1% NP-40); streptavidin resin, then calmodulin resin; gel cut into high and low molecular weight fragments; no MS of the control sample

binding	Binder
binds	B1
binds	B2
binds	B3
binds	B4
binds	B5
binds	B6
binds	B7
binds	B8
binds	B9

Biological target: TAP-Kv4.2 (human) (UniProt Q9NZV8)
Assay: affinity purification with mass spectrometry; TAP-Kv4.2 expressed by lentivirus in rat hippocampal neurons, harvested at DIV14; strong lysis buffer (1% Triton X-100, 0.5% deoxycholate in PBS, pH 7.4); streptavidin resin, then calmodulin resin; gel cut into high and low molecular weight fragments; no MS of the control sample

binding	Binder
binds	B1
binds	B2
binds	B3
binds	B4
binds	B5
binds	B6
binds	B7
binds	B8
binds	B9
